PubChem BioAssay AID1259424 | University of Nebraska Medical Center, 2018
Test: 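Find knockdowns that reproduce the expression shifts seen after KSR1 loss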 (primary screen). Cell system: human HCT116 colon cancer cells. Reagent: siRNA pool against human genes, 50 nM. Measured: 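Log2 levels of six mRNAs (branched-DNA multiplex), adjusted by two reference genes and the non-targeting median, then scored against the average KSR1 knockdown pattern as Pearson r and euclidean distance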. Direction: mean correlation with KSR1 profile and KSR1 correlation: higher = expression change more like KSR1 knockdown; mean distance from KSR1 profile: higher = expression change less like KSR1 knockdown.
This is one part, drawn at random, of about 14,000 reagents. 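Higher correlation or smaller distance means closer resemblance to KSR1 loss; control wells, including KSR1 knockdowns, recur on many plates.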 Some reagents were tested in more than one well and are listed for each. Not stated in the record: the time to read-out.

| Gene | mean correlation with KSR1 profile | mean distance from KSR1 profile | KSR1 correlation, replicate 1 | KSR1 correlation, replicate 2 | KSR1 correlation, replicate 3 |
| --- | --- | --- | --- | --- | --- |
| TCF7 | 0.0164 | 1.48 | 0.345 | 0.235 | -0.229 |
| SFT2D3 | 0.363 | 3.3 | 0.187 | 0.0744 | 0.298 |
| CACNA1I | -0.179 | 1.67 | -0.71 | -0.0213 | -0.102 |
| VCX2 | -0.194 | 1.74 | -0.0748 | -0.372 | -0.186 |
| ADRB2 | 0.527 | 3.01 | 0.404 | 0.685 | 0.392 |
| ADRB2 | 0.359 | 3.7 | 0.293 | 0.302 | 0.293 |

Continued, starting with the last 2 of the part before.
| Gene | mean correlation with KSR1 profile | mean distance from KSR1 profile | KSR1 correlation, replicate 1 | KSR1 correlation, replicate 2 | KSR1 correlation, replicate 3 |
| --- | --- | --- | --- | --- | --- |
| ADRB2 | 0.527 | 3.01 | 0.404 | 0.685 | 0.392 |
| ADRB2 | 0.359 | 3.7 | 0.293 | 0.302 | 0.293 |
| CORO2B | 0.102 | 1.37 | 0.3 | -0.0126 | 0.412 |
| SUGP2 | 0.262 | 1.51 | 0.253 | 0.303 | 0.105 |
| FSTL4 | -0.0208 | 3.85 | 0.0346 | -0.0225 | 0.00898 |
| EXO1 | 0.0406 | 1.89 | -0.0441 | -0.0125 | 0.0951 |
| COL7A1 | -0.308 | 1.85 | 0.00986 | -0.46 | -0.439 |
| IKBKE | 0.075 | 1.96 | 0.34 | 0.461 | -0.36 |
| FAM89B | 0.294 | 3.61 | 0.284 | 0.525 | 0.149 |
| GET4 | 0.285 | 1.54 | 0.0154 | 0.582 | 0.135 |
| RB1 | 0.0928 | 2.13 | 0.179 | 0.147 | -0.0235 |
| OCRL | -0.268 | 3.29 | -0.397 | -0.42 | -0.295 |
| PGAP4 | 0.0336 | 2.75 | 0.0184 | -0.0328 | -0.0676 |
| CHRNB1 | -0.0599 | 1.83 | 0.148 | -0.184 | -0.101 |
| NXF5 | -0.209 | 1.57 | -0.42 | -0.118 | -0.203 |
| MAP3K8 | 0.394 | 2.34 | 0.451 | 0.428 | 0.136 |
